Results deposited as PubChem BioAssay AID1053208 (Peter MacCallum Cancer Centre, 2014)
Purpose: 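Find knock-downs that sensitise mouse osteosarcoma cells to doxorubicin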 (primary screen). Cell system: mouse osteosarcoma cells, early-passage culture from an engineered mouse model of fibroblastic bone tumour. Reagents: siRNA pool against mouse genes, 40 nM. Duration: about 120 h (48 h before drug, then 72 h with drug). Treatment: doxorubicin 100 nM for 72 h, roughly 30-40% inhibitory dose. Detection: 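Luminescent ATP signal taken as viability with or without 100 nM doxorubicin for 72 h; mean of two wells set against non-targeting siRNA and turned into robust z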. Direction: viability z-score with doxorubicin: higher = more viable cells under doxorubicin; viability z-score without drug: higher = more viable cells with knock-down alone. Call rule: 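Called active if knock-down leaves viability unchanged without drug (z within -2 to 2) but lowers it with doxorubicin (z at or under -2)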.
This is an unselected part of about 17,000 deposited reagents. 788 of them (4.7%) count as active. 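Calls rest on z-score classes alone; an extra cut-off of viability at most 70% of control was not applied to them.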 Not all columns of the deposit are shown. No sequences are given here.

For Rab5c, the entry reads combined z-score class no change with or without drug; viability z-score with doxorubicin 0.45; viability z-score without drug -0.17; inactive.
Vmn1r41 gave combined z-score class no change with or without drug; viability z-score with doxorubicin 1.12; viability z-score without drug 1.85; inactive.
Against Vmn1r29 the deposit lists combined z-score class no change with or without drug; viability z-score with doxorubicin 0; viability z-score without drug -0.51; inactive.
After knock-down of Gml2, the screen gave combined z-score class no change with or without drug; viability z-score with doxorubicin 0.11; viability z-score without drug 0.17; inactive.
Depletion of Or6a2 came out at: combined z-score class no change with or without drug; viability z-score with doxorubicin 0.22; viability z-score without drug 1.35; inactive.
With knock-down of Swi5, the record shows combined z-score class high cell count with doxorubicin only; viability z-score with doxorubicin 3.26; viability z-score without drug 0.17; inactive.
Against Tafa3 the deposit lists combined z-score class no change with or without drug; viability z-score with doxorubicin 1.01; viability z-score without drug -0.67; inactive.
Magea2 showed combined z-score class no change with or without drug; viability z-score with doxorubicin -1.12; viability z-score without drug -0.51; inactive.
Against Slco6b1, the entry reads combined z-score class no change with or without drug; viability z-score with doxorubicin 0.56; viability z-score without drug 0.51; inactive.
For Inhbc the deposit lists combined z-score class no change with or without drug; viability z-score with doxorubicin 0.34; viability z-score without drug 1.52; inactive.
Silencing of Glg1 resulted in: combined z-score class no change with or without drug; viability z-score with doxorubicin 0.22; viability z-score without drug -1.18; inactive.
Depletion of Ces1g came out at: combined z-score class no change with or without drug; viability z-score with doxorubicin -0.67; viability z-score without drug -0.67; inactive.
